# This is one part of the list.
# The chains behind the UniProt entries cited, without tags or fusion partners. Where a name states a change or a piece, a line headed by the entry shows the natural chain unless it says otherwise.
# UniProt Q9NRF8: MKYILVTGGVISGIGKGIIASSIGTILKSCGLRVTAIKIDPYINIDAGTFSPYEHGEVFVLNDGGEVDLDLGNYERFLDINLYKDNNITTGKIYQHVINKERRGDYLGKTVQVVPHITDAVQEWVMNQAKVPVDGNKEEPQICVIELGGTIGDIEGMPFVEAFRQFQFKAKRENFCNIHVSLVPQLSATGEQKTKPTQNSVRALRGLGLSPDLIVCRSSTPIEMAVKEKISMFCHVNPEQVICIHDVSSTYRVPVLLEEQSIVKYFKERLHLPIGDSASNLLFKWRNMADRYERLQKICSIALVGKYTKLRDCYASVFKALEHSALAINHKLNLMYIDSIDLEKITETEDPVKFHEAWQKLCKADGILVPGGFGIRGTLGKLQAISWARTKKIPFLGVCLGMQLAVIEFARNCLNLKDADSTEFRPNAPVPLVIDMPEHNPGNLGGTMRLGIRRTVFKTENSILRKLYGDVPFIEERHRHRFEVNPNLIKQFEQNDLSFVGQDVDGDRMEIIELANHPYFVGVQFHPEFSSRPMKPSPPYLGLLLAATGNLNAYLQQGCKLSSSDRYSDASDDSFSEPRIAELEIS
# UniProt Q9NWV4: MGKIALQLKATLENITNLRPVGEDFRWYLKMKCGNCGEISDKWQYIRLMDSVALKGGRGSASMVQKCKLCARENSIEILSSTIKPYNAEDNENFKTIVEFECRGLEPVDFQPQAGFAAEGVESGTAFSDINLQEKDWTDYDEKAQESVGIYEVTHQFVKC
# UniProt P99999: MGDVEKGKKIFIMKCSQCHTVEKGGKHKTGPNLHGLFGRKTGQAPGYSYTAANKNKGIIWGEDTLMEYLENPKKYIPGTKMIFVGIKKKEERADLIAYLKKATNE
# UniProt Q13561, whole entry, looked up: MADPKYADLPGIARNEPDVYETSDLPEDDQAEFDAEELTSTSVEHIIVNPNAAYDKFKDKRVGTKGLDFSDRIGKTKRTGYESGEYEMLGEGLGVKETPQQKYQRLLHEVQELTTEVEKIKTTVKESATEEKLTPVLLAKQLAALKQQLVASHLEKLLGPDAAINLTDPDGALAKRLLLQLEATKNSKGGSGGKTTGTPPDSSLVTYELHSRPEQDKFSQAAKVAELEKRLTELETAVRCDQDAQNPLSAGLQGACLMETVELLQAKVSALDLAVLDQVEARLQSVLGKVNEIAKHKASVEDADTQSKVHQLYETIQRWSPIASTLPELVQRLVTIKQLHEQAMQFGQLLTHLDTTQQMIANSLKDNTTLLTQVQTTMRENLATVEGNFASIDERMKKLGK
# UniProt Q8WVC6: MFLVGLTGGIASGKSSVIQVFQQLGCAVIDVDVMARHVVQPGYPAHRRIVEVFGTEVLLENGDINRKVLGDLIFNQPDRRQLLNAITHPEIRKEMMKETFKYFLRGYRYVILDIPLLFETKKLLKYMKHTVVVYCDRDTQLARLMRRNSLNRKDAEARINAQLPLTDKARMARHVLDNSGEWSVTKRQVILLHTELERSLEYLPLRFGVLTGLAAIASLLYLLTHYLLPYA
# UniProt P27707: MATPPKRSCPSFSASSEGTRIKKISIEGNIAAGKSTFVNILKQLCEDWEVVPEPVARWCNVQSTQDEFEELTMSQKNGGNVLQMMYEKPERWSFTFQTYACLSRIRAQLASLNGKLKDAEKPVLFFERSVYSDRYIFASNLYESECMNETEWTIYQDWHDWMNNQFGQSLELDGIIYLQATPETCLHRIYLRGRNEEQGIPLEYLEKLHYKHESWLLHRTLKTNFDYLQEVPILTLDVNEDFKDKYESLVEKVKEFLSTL
# UniProt Q7L1T6: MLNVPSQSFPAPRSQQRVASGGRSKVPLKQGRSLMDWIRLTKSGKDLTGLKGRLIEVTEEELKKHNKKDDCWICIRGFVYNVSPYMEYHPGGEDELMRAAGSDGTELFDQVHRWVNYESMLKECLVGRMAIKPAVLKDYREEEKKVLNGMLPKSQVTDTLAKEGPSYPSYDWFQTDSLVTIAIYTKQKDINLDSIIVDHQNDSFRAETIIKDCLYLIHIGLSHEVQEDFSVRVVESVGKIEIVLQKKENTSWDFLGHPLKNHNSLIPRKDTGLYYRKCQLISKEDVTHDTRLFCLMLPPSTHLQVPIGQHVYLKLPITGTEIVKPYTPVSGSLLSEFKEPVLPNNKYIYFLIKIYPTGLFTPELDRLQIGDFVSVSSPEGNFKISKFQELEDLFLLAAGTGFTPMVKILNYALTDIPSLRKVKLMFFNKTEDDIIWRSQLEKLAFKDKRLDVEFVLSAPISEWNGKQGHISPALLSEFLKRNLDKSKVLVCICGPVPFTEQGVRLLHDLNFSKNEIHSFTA
# UniProt Q69YN2: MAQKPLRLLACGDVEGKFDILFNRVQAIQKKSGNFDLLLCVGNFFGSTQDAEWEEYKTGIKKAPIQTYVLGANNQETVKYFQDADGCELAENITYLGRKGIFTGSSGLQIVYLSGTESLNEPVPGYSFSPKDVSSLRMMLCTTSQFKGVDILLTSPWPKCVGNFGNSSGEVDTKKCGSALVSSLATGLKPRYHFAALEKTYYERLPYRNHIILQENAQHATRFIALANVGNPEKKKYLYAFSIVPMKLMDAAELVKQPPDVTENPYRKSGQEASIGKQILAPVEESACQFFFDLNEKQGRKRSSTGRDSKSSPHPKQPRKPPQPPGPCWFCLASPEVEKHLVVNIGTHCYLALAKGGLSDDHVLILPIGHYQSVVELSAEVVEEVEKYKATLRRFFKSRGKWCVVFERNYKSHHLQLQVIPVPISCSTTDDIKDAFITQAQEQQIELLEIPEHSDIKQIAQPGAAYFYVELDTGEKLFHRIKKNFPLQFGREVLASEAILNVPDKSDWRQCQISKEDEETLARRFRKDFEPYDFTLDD
# UniProt Q9H0L4: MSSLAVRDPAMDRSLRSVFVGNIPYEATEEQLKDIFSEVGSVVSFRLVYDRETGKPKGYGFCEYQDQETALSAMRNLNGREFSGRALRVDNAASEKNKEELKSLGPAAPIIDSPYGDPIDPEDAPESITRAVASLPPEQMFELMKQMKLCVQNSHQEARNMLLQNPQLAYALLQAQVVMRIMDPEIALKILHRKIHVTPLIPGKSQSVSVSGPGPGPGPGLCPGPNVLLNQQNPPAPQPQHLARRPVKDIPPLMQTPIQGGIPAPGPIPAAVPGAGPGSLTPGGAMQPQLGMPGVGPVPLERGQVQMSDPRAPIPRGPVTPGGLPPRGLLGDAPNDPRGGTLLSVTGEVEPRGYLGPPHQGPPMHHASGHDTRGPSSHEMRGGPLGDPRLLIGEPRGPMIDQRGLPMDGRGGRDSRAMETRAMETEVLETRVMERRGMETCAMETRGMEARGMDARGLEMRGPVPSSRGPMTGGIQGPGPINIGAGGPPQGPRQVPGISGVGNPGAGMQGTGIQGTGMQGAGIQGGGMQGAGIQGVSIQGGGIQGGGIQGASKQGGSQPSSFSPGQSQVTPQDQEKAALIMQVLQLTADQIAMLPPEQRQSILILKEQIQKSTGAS
# UniProt Q96C86: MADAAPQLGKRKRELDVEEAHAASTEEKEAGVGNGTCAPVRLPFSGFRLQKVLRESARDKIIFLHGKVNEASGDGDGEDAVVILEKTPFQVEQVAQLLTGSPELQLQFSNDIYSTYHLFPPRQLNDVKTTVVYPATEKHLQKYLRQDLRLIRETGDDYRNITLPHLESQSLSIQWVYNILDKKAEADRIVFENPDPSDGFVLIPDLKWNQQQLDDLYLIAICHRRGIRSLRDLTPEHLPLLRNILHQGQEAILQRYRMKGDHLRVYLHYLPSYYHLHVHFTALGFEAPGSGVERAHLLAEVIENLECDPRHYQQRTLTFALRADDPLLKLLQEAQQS
# UniProt O43310: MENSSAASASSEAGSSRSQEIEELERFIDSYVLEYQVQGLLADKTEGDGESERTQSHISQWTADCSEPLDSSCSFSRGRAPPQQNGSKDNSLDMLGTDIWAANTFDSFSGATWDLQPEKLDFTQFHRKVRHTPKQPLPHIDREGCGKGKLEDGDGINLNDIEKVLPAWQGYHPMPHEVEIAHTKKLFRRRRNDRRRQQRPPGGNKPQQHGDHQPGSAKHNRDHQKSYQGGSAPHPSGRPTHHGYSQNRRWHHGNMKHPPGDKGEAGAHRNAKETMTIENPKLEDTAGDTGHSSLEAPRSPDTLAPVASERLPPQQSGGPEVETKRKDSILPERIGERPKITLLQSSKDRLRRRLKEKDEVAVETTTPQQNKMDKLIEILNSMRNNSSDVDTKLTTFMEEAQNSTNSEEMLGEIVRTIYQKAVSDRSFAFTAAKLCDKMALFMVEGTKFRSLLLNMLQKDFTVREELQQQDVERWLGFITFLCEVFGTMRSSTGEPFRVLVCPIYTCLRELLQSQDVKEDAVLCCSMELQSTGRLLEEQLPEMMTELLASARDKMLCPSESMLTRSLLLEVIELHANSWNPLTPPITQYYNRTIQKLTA
# UniProt P04080: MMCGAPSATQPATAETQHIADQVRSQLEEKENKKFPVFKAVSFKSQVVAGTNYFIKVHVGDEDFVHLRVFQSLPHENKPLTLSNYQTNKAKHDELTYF
# UniProt Q13618, whole entry, looked up: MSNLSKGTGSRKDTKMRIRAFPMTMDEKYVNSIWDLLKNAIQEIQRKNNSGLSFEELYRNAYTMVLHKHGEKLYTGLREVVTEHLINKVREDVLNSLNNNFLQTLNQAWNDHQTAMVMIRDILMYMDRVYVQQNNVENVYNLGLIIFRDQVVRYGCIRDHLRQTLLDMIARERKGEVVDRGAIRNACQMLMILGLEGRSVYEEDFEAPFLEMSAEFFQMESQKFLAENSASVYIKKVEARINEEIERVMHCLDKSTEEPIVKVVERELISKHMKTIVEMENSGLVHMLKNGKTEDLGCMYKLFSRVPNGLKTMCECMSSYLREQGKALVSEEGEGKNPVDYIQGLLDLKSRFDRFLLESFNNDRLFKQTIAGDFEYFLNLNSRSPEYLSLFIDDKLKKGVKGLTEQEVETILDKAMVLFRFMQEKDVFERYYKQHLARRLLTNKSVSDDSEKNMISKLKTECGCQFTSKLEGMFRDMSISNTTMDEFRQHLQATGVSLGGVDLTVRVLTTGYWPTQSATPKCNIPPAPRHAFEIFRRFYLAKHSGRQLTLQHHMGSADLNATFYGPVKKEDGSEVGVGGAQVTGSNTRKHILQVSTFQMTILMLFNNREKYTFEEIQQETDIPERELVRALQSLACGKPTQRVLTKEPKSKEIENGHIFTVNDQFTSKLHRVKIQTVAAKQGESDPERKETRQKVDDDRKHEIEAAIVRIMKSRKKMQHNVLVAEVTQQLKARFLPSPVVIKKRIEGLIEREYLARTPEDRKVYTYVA
# UniProt O00399, whole entry, looked up: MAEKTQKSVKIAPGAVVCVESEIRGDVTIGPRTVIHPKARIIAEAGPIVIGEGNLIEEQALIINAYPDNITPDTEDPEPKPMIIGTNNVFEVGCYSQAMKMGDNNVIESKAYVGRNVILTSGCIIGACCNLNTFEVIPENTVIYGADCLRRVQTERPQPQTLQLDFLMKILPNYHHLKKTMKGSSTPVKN
# UniProt E9PJD7, whole entry, looked up: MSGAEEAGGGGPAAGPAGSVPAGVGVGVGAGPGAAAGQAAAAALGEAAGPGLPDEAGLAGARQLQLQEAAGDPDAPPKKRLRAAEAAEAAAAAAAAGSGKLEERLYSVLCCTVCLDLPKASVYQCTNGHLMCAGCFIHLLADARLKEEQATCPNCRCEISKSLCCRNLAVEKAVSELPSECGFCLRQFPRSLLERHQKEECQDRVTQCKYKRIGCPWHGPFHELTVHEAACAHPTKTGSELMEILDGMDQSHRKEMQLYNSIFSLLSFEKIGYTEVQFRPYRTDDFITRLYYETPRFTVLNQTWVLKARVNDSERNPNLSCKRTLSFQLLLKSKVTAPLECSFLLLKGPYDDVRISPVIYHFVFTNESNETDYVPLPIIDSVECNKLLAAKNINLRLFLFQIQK
# UniProt Q9NTM9: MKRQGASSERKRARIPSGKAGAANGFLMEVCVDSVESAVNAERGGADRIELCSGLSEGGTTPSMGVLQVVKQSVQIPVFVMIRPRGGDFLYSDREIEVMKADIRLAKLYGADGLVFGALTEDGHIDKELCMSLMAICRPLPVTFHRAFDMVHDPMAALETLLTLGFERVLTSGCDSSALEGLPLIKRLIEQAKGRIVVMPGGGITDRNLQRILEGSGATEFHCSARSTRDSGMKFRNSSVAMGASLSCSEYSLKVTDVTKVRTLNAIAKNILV
# UniProt P0DMU9: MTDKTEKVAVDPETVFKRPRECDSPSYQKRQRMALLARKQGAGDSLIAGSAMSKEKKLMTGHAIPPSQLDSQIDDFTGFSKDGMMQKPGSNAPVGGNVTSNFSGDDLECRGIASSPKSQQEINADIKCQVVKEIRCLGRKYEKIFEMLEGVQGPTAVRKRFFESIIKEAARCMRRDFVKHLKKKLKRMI
# UniProt Q9UHQ9: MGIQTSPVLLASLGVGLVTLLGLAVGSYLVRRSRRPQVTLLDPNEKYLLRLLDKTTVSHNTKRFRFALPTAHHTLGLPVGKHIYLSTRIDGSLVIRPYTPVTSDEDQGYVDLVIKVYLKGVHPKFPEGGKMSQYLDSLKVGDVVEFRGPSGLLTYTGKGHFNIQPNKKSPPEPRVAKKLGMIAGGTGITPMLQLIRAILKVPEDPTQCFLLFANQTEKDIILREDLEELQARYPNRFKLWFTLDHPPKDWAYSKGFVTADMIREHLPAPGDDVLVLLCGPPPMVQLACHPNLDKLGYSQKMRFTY
# Compound: CC(C)N(C[C@H]1O[C@@H](n2cnc3c(N)ncnc32)[C@H](O)[C@@H]1O)[C@H]1C[C@@H](CCc2nc3cc(C(C)(C)C)ccc3[nH]2)C1 [pinometostat]
# Experiment: log2 fold change, soluble protein after heating vs DMSO (PISA); higher = thermal stabilisation; K562 cells, 10 uM, 30 min; active = over 0.2 and 3.5 SD of the protein, either way, in both replicates (recomputed)
# Method in brief: (§1)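 K562 cells at 2×10^6 cells/mL were treated with 10 μM compound for 30 min. Aliquots were heated for 3 min across 48°C-58°C, pooled, and extracted in PBS with 0.5% NP-40 at 4°C; soluble protein was the supernatant after 21,000xg for 90 min. Soluble protein was quantified by TMTpro 16plex LC-MS/MS with channel sums equalised, and reported as log2 fold change in thermal stability against DMSO controls, with values from duplicates.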
row,Target,log2 fold change
1,CTPS2 (UniProt Q9NRF8),inactive: -0.056
2,CWC25 (UniProt Q9NXE8),inactive: 0.208
3,CYFIP2 (UniProt Q96F07),inactive: -0.002
4,CZIB (UniProt Q9NWV4),inactive: -0.021
5,DARS (UniProt P14868),inactive: 0.066
6,CYCS (UniProt P99999),inactive: -0.038
7,DARS2 (UniProt Q6PI48),inactive: -0.051
8,DAP3 (UniProt P51398),inactive: 0.028
9,CTBP1 (UniProt Q13363),inactive: -0.048
10,DCTN2 isoform 2 (UniProt Q13561),inactive: -0.024
11,CSTF1 (UniProt Q05048),inactive: -0.079
12,DCAKD (UniProt Q8WVC6),inactive: 0.026
13,DCK (UniProt P27707),inactive: -0.011
14,CYB5R4 (UniProt Q7L1T6),inactive: -0.012
15,CWF19L1 (UniProt Q69YN2),inactive: 0.031
16,DCAF11 (UniProt Q8TEB1),inactive: -0.017
17,CSTF2T (UniProt Q9H0L4),inactive: -0.041
18,CTU2 (UniProt Q2VPK5),inactive: 0
19,CUL2 isoform 2 (UniProt Q13617),inactive: -0.023
20,CTNNA2 (UniProt P26232),inactive: 0.001

row,Target,log2 fold change
1,CYB5R2 (UniProt Q6BCY4),inactive: -0.031
2,DCPS (UniProt Q96C86),inactive: -0.067
3,CTIF isoform 2 (UniProt O43310),inactive: 0.05
4,CUL1 (UniProt Q13616),inactive: -0.057
5,CTCF (UniProt P49711),inactive: 0.204
6,CSTB (UniProt P04080),inactive: 0.001
7,CUL3 (UniProt Q13618),inactive: -0.026
8,CTH (UniProt P32929),inactive: -0.049
9,CUL4B (UniProt K4DI93),inactive: -0.024
10,CYP20A1 (UniProt Q6UW02),inactive: 0.047
11,DCTN6 (UniProt O00399),inactive: -0.052
12,CYHR1 (UniProt E9PJD7),inactive: 0.033
13,CUTC (UniProt Q9NTM9),inactive: -0.008
14,DCP1A (UniProt Q9NPI6),inactive: 0.082
15,CSPP1 (UniProt Q1MSJ5),inactive: 0.086
16,DCAF1 (UniProt Q9Y4B6),inactive: 0.003
17,CT45A10 (UniProt P0DMU9),inactive: 0.193
18,CYB5R1 (UniProt Q9UHQ9),inactive: -0.053
19,DCTN3 (UniProt O75935),inactive: -0.114

# Compound: CC1=C(C(CC(=O)N1)C2=CC=C(C=C2)C(F)(F)F)C(=O)NC3=C(C=C4C(=C3)C=NN4)F
# Experiment: as above
# Method in brief: as §1
row,Target,log2 fold change
1,CTPS2 (UniProt Q9NRF8),inactive: 0.036
2,CWC25 (UniProt Q9NXE8),inactive: 0.008
3,CYFIP2 (UniProt Q96F07),inactive: 0.03
4,CZIB (UniProt Q9NWV4),inactive: -0.012
5,DARS (UniProt P14868),inactive: 0.024
6,CYCS (UniProt P99999),inactive: 0.067
7,DARS2 (UniProt Q6PI48),inactive: 0.04
8,DAP3 (UniProt P51398),inactive: 0.023
9,CTBP1 (UniProt Q13363),inactive: 0.038
10,DCTN2 isoform 2 (UniProt Q13561),inactive: -0.021
11,CSTF1 (UniProt Q05048),inactive: 0.079
12,DCAKD (UniProt Q8WVC6),inactive: -0.123
13,DCK (UniProt P27707),inactive: 0.012
14,CYB5R4 (UniProt Q7L1T6),inactive: -0.011
15,CWF19L1 (UniProt Q69YN2),inactive: -0.06
16,DCAF11 (UniProt Q8TEB1),inactive: -0.028
17,CSTF2T (UniProt Q9H0L4),inactive: -0.017
18,CTU2 (UniProt Q2VPK5),inactive: -0.007
19,CUL2 isoform 2 (UniProt Q13617),inactive: -0.019
20,CTNNA2 (UniProt P26232),inactive: -0.02

row,Target,log2 fold change
1,CYB5R2 (UniProt Q6BCY4),inactive: 0.004
2,DCPS (UniProt Q96C86),inactive: 0.013
3,CTIF isoform 2 (UniProt O43310),inactive: -0.214
4,CUL1 (UniProt Q13616),inactive: 0.033
5,CTCF (UniProt P49711),inactive: 0.014
6,CSTB (UniProt P04080),inactive: -0.006
7,CUL3 (UniProt Q13618),inactive: 0.016
8,CTH (UniProt P32929),inactive: 0.048
9,CUL4B (UniProt K4DI93),inactive: -0.009
10,CYP20A1 (UniProt Q6UW02),inactive: -0.012
11,DCTN6 (UniProt O00399),inactive: 0.001
12,CYHR1 (UniProt E9PJD7),inactive: -0.062
13,CUTC (UniProt Q9NTM9),inactive: 0.047
14,DCP1A (UniProt Q9NPI6),inactive: 0.027
15,CSPP1 (UniProt Q1MSJ5),inactive: 0.049
16,DCAF1 (UniProt Q9Y4B6),inactive: -0.023
17,CT45A10 (UniProt P0DMU9),inactive: 0.064
18,CYB5R1 (UniProt Q9UHQ9),inactive: 0.017
19,DCTN3 (UniProt O75935),inactive: -0.024

# — the supplement of paper PMC10849652
